Measurements published in US20020127702.

Protein sequences, listed by entry. Tags and fused reporters are not part of them. Residues count along the entry.
UniProt Q99459, 1-500: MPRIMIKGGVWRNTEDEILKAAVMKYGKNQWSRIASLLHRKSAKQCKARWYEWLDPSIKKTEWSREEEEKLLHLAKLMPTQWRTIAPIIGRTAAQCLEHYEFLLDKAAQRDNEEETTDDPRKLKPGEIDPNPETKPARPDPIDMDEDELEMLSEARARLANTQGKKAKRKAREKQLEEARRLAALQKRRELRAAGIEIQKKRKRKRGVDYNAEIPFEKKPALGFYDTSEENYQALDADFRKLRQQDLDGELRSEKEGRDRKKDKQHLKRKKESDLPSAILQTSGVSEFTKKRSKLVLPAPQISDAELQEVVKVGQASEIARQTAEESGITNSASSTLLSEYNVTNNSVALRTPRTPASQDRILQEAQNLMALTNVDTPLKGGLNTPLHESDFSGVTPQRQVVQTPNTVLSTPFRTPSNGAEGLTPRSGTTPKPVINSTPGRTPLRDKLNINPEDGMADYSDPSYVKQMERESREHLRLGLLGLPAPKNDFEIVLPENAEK

Molecular target: hCdc5 DNA-binding domain (aa 1-500) (Homo sapiens) (UniProt Q99459)
Test: SELEX
Conditions: all five sequenced round 8 products identical; Ni-NTA pulldown selection; purified recombinant protein; protein details: His6 fusion (pET29c(+), E. coli BL21(DE3), Ni-NTA); label: 32P

GATTTAACATAA (double strand) [hCdc5 consensus site]
selection result: selected

Construct, isoform or probe ends are uncertain for at least one entry.
